Data on one molecule can be found in publication PMC4585926, “A RANKL mutant used as an inter-species vaccine for efficient immunotherapy of osteoporosis” (Scientific Reports, 2015).

This experiment concerns the target T1, mouse RANK extracellular domain (mouse, UniProt O35305 31-214).
T1 construct: RANK, mouse, extracellular domain (plasmid pET28a-mRANK); also called mRANK; mRANK ectodomain; source: plasmid pET28a-mRANK
T1 sequence (looked up): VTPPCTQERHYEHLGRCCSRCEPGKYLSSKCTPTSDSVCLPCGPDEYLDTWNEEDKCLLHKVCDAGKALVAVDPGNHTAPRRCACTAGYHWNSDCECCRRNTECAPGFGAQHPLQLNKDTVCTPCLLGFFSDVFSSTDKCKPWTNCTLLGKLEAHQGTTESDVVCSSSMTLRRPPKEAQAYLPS
Kind of experiment: crystal structure; hRANKL and mRANK mixed 1:1 in 0.1 M Tris pH 7.0, 10 mg/mL; sitting drop at 294 K, microseeded with crushed mRANKL-mRANK crystals; 2.8 Å, space group P63; both purified.

These are yes or no findings as the source states them, for the method shown. Some results given as binding are weak or reduced against the parent protein; the word gives no strength.

B1: human RANKL ectodomain (residues 158-317), wild type (ligand, UniProt O14788 158-317, looked up)
chain: SKLEAQPFAHLTINATDIPSGSHKVSLSSWYHDRGWAKISNMTFSNGKLIVNQDGFYYLYANICFRHHETSGDLATEYLQLMVYVTKTSIKIPSSHTLMKGGSTKYWSGNSEFHFYSINVGGFFKLRSGEEISIEVSNPSLLDPDQDATYFGAFKVRDID
notes: RANKL, human, ectodomain, residues 158-317 (plasmid pGEX-6P-hRANKL); Homotrimer in the crystal structure; also called hRANKL; wild-type hRANKL; source: E. coli BL21, purified (glutathione-Sepharose, PreScission cleavage, Superdex 200); not shown: GST, N-terminal, cleaved
Regarding B1, the binding result is reported as “binds”.
